# PubChem BioAssay AID901 (National Center for Advancing Translational Sciences (NCATS), 2007)
# This is one part of the list. Further columns of the screen follow, without active or inactive calls. Most of these compounds were active or inconclusive in the main read-out, so they are no random draw. Potencies come from curve fits of mixed quality, noted in brackets.
# Assay: qHTS Assay for Identifying the Cell-Membrane Permeable IMPase Inhibitors
# Conditions: CHO-M1 cells, IP1 accumulation, HTRF TR-FRET ratio; measured here: donor channel 620 nm AC50
row,Structure (SMILES),AC50
1,COc1ccccc1NS(=O)(=O)c1cccc(NC(=O)NC2CCCCC2)c1,"0.562 µM [falling, full curve]"
2,COC(=O)COc1cccc(-n2cnnn2)c1,"0.631 µM [rising, full curve, poor fit]"
3,O=C(CCCOc1ccc(Cl)cc1Cl)N1CCN(c2ccccn2)CC1,"10 µM [falling, partial curve]"
4,Nc1c(O)ccc2c1C(=O)c1ccccc1C2=O,"12.6 µM [falling, partial curve]"
5,CCOc1ccc(N(CC(=O)Nc2cccc(OC)c2)S(=O)(=O)c2c(C)noc2C)cc1,"44.7 µM [rising, partial curve, poor fit]"
6,Nc1cc2nsnc2cc1Br,"12.6 µM [rising, partial curve]"
7,Cc1ccc(N(C(=O)NC2CCCCC2)C2=NCCCCC2)cc1,"0.00126 µM [rising, full curve, poor fit]"
8,COc1nc(NC2CCCCC2)nc(N2CCCCCC2)n1,"0.251 µM [falling, single point]"
9,CCCc1c(CC)c(=N)c2ccccc2n1C,"0.0316 µM [falling, full curve, poor fit]"
10,NC(=O)c1cnn2c(C(F)(F)F)cc(-c3ccccc3)nc12,"0.00794 µM [falling, full curve, poor fit]"
11,O=C(CN1CCN(c2nc(-c3ccccc3)cs2)CC1)Nc1ccc2c(c1)OCO2,"1.41 µM [falling, full curve, poor fit]"
12,Cc1ccc(-c2csc(NC(=O)c3cccs3)n2)cc1,"6.31 µM [falling, single point]"
13,CC(=O)NC1=C(NC2CCS(=O)(=O)C2)C(=O)c2ccccc2C1=O (configuration not stated),"11.2 µM [falling, partial curve]"
14,Cc1ccc(-c2noc(C3CCCN(C(=O)c4ccccc4)C3)n2)o1 (configuration not stated),"2 µM [falling, full curve]"
15,COc1ccc(-c2nc3ccccc3n2Cc2ccccc2)cc1,"22.4 µM [rising, single point]"
16,Cc1ccccc1NS(=O)(=O)c1ccc(C)c(C(N)=O)c1,"0.01 µM [falling, full curve, poor fit]"
17,COc1ccc(OC)c(C(=O)c2ccccc2)c1,"0.631 µM [falling, single point]"
18,CCCCNc1nc(-c2ccccc2)cc(C(F)(F)F)c1C(N)=O,"0.251 µM [falling, full curve]"
19,Cc1nc(C)c(C(=O)Nc2nc3c(C)cccc3s2)o1,"5.01 µM [falling, single point]"
20,CCN(CC(=O)NC1CCS(=O)(=O)C1)c1nc(-c2ccccc2)nc2ccccc12 (configuration not stated),"0.0126 µM [rising, full curve, poor fit]"
21,CCOc1ccccc1OCCCOc1ccc(C)cc1Cl,"6.31 µM [rising, full curve, poor fit]"
22,O=C(CCCCCn1c(=S)[nH]c2cc3c(cc2c1=O)OCO3)N1CCN(C(=O)c2ccco2)CC1,"31.6 µM [rising, single point]"
23,O=C(NCc1ccccc1)c1ccc(COCC(F)(F)F)o1,"22.4 µM [falling, single point]"

row,Structure (SMILES),AC50
1,O=C(CCS(=O)(=O)c1cc(Br)cc2c1N(C(=O)C1CC1)CC2)Nc1ccc(F)cc1,"0.178 µM [rising, full curve, poor fit]"
2,Fc1ccc(CSc2nncn2NCc2ccccc2)cc1,"0.398 µM [rising, partial curve]"
3,COc1cc(NC(=O)CN2C(=O)NC(C)(CC(C)C)C2=O)cc(OC)c1 (configuration not stated),"0.0126 µM [falling, single point]"
4,CCOc1ccc(C2c3c(oc4ccccc4c3=O)C(=O)N2c2nnc(C)s2)cc1OC (configuration not stated),"4.47 µM [falling, single point]"
5,Cn1cccc1Cc1nnc(SCC(=O)N2CCN(c3ccccc3)CC2)n1-c1ccc(F)cc1,"6.31 µM [rising, partial curve, poor fit]"
6,CCOc1ncccc1C(=O)Nc1ccccc1C(=O)NCc1ccc2c(c1)OCO2,"5.01 µM [rising, single point]"
7,Cc1cc(C)n2c(Nc3ccccc3)c(-c3ccccc3)nc2n1,"6.31 µM [falling, single point]"
8,CCn1c2ccccc2c2cc(N)ccc21,"0.0631 µM [rising, full curve, poor fit]"
9,CCNc1cc2oc(=O)c(CN3CCOCC3)c(C)c2cc1C,"0.02 µM [rising, full curve, poor fit]"
10,O=C(OCC1CCCN2CCCCC12)c1ccc2c(c1)OCO2 (configuration not stated),"2 µM [falling, partial curve, poor fit]"
11,CCn1c(SCC(=O)Nc2cccc(F)c2)nnc1-c1cc2cc(Br)ccc2o1,"25.1 µM [rising, single point]"
12,CN(C)c1ccc(C2OC(=O)C(C)(C)C(=O)C2(C)C)cc1 (configuration not stated),"3.16 µM [rising, partial curve]"
13,CCN(CCCNC(=O)CCNC(=O)Cn1cnc2ccccc2c1=O)c1ccccc1,"3.16 µM [falling, single point]"
14,CCn1c(SCC(=O)Nc2nccs2)nnc1-c1ccncc1,"3.16 µM [falling, single point]"
15,Cc1ccc(C)c(N(CC(=O)NC2CCCC2)C(=O)c2cc3cc4cccc(C)c4nc3s2)c1,"3.98 µM [rising, single point]"
16,CCOC(=O)N1CCN(C(=O)Cn2c(=O)sc3ccccc32)CC1,"0.398 µM [falling, partial curve, poor fit]"
17,CCCC1=Nc2cc(C(=O)NC3CCCC3)ccc2Sc2ccc(C)cc21,"12.6 µM [falling, single point]"
18,CCOC(=O)c1ccc(NS(=O)(=O)c2ccc3c(c2)n(C)c(=O)n3C)cc1,"0.0224 µM [falling, full curve, poor fit]"
19,Cc1cccc(C2N(c3nccs3)C(=O)C3CCCN32)c1 (configuration not stated),"6.31 µM [rising, full curve, poor fit]"
20,Cc1cc(NC(=O)CCC(=O)N(c2cccnc2)C(C(=O)NC2CCCC2)c2ccccc2F)no1 (configuration not stated),"0.158 µM [falling, single point]"
21,COc1ccc(-c2csc3nc(-c4ccccc4C)oc(=O)c23)cc1OC,"5.62 µM [rising, single point]"
22,CCN(CC)c1cc(C)c2ccccc2n1,"0.1 µM [rising, single point]"
23,O=C(Nc1cc(-c2nc3ccccc3s2)ccc1Cl)c1cc2ccccc2o1,"11.2 µM [rising, partial curve]"

row,Structure (SMILES),AC50
1,CCn1c(-c2cccc(Cl)c2)n[nH]c1=S,"10 µM [rising, partial curve]"
2,c1ccc(-c2csc3nnc(SCc4ccc5c(c4)OCO5)n23)cc1,"0.0631 µM [falling, full curve, poor fit]"
3,COc1cc2c(cc1OC)C(C)N(C(=O)C1COc3ccccc3O1)CC2 (configuration not stated),"0.0251 µM [falling, full curve]"
4,CC1(C)CCCC2=C1CC1C(=O)N(Cc3cccnc3)C(=O)C1C2 (configuration not stated),"0.01 µM [rising, full curve, poor fit]"
5,O=C1OCCC1Sc1nc2cc(Cl)ccc2n1Cc1ccccc1 (configuration not stated),"0.398 µM [falling, partial curve]"
6,CC(C)(C)NC(=O)C(=O)NNC(=O)c1ccccc1,"0.00631 µM [falling, full curve, poor fit]"
7,CCCn1cnc2c(=O)oc3ccccc3c21,"0.126 µM [rising, single point]"
8,CN(C)CCN1C(=O)C(=O)/C(=C(/O)c2ccc(F)cc2)C1c1ccccc1 (configuration not stated),"0.0251 µM [rising, full curve, poor fit]"
9,CC(Nc1ccccc1)c1cc(Cl)ccc1O (configuration not stated),"2.51 µM [falling, partial curve, poor fit]"
10,CCOC(=O)N1CCc2c(sc3c2C(=O)NC(c2ccc(C(=O)OC)cc2)N3)C1 (configuration not stated),"0.0891 µM [falling, full curve, poor fit]"
11,Cc1cc2oc3c(c(=O)c2cc1C)C(c1ccc(C(C)C)cc1)N(c1nc(C)c(C)s1)C3=O (configuration not stated),"0.0708 µM [falling, full curve, poor fit]"
12,CN(C)c1ccc(NC(=O)c2cccc(N3C(=O)CCC3=O)c2)cc1,"0.000398 µM [falling, full curve, poor fit]"
13,O=C(OC1CCOC1=O)c1cc(-c2ccc(Cl)cc2)nc2ccccc12 (configuration not stated),"1.26 µM [rising, single point]"
14,CCNc1nc(-c2ccc(Cl)cc2)cs1,"1 µM [rising, partial curve, poor fit]"
15,CC(C)(C)NC(=O)CSc1nc(-c2ccc(F)cc2)cc(C(F)(F)F)n1,"2 µM [falling, full curve, poor fit]"
16,COc1cc(/C=C(\C#N)c2nc3ccccc3[nH]2)cc(Br)c1OCc1ccc(F)cc1,"0.0631 µM [rising, full curve, poor fit]"
17,CO/N=C/NC(=O)c1c(OC)ccnc1Oc1cccc(C(F)(F)F)c1,"10 µM [rising, partial curve, poor fit]"
18,C=CCOc1ccc(Oc2cc(C)nc(SC)n2)nn1,"3.16 µM [falling, partial curve]"
19,COc1cc(C(=O)NCCC2=CCCCC2)cc(OC)c1OC,"5.01 µM [rising, partial curve, poor fit]"
20,CCCCOc1cccc(C(=O)O)c1,"3.98 µM [falling, partial curve, poor fit]"
21,COc1ccc(NC(=O)Cn2nc(C(F)(F)F)c3c2CCCC3)cc1OC,"0.708 µM [falling, full curve]"

# In a second layout: results already given
row	Structure (SMILES)	AC50
18	CCCCNc1nc(-c2ccccc2)cc(C(F)(F)F)c1C(N)=O	0.251 µM [falling, full curve]
18	CCOC(=O)c1ccc(NS(=O)(=O)c2ccc3c(c2)n(C)c(=O)n3C)cc1	0.0224 µM [falling, full curve, poor fit]
3	COc1cc2c(cc1OC)C(C)N(C(=O)C1COc3ccccc3O1)CC2 (configuration not stated)	0.0251 µM [falling, full curve]
7	CCCn1cnc2c(=O)oc3ccccc3c21	0.126 µM [rising, single point]
21	COc1ccc(NC(=O)Cn2nc(C(F)(F)F)c3c2CCCC3)cc1OC	0.708 µM [falling, full curve]
